# Test results from article PMC8384837.
# Changes are numbered by the printed parent chain. This is one part of the list. For some assays here: At the low end of the ranking, values are background and their order means little.
# Experiments:
# Settings in all cases: yeast three-hybrid, YBZ-1, SC-Leu-His + 0.5 mM 3-AT, 4 days
# [1] = target: T1, PUM1 PUF domain R5-GVD C1007G + R1008V + Q1011D (UniProt Q14671)
# T1 sequence: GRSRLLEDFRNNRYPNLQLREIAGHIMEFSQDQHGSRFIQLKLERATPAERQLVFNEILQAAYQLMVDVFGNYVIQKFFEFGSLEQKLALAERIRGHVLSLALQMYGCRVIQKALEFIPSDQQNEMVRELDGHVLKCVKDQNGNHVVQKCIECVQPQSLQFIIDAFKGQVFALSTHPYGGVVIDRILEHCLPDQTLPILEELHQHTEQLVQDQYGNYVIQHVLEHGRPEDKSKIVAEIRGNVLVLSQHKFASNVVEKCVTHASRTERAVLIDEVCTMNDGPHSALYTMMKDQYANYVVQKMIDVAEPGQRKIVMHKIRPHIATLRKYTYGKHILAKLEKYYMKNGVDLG
# [2] = target: T2, PUM1 PUF domain R5-GVE C1007G + R1008V + Q1011E (UniProt Q14671)
# T2 sequence: T1 sequence with D184E
# [3] = target: T3, PUM1 PUF domain R5-GVR C1007G + R1008V + Q1011R (Homo sapiens) (UniProt Q14671)
# T3 sequence: T1 sequence with D184R
# [4] = target: T4, PUM1 PUF domain R5-GYL C1007G + R1008Y + Q1011L (Homo sapiens) (UniProt Q14671)
# T4 sequence: T1 sequence with V181Y, D184L
# [5] = target: T5, PUM1 PUF domain R5-HCR C1007H + R1008C + Q1011R (UniProt Q14671)
# T5 sequence: T1 sequence with G180H, V181C, D184R
# [6] = target: T6, PUM1 PUF domain R5-HFF C1007H + R1008F + Q1011F (Homo sapiens) (UniProt Q14671)
# T6 sequence: T1 sequence with G180H, V181F, D184F
# [7] = target: T7, PUM1 PUF domain R5-HLY C1007H + R1008L + Q1011Y (UniProt Q14671)
# T7 sequence: T1 sequence with G180H, V181L, D184Y
# [8] = target: T8, PUM1 PUF domain R5-HNR C1007H + R1008N + Q1011R (UniProt Q14671)
# T8 sequence: T1 sequence with G180H, V181N, D184R
# [9] = target: T9, PUM1 PUF domain R5-HRL C1007H + Q1011L (Homo sapiens) (UniProt Q14671)
# T9 sequence: T1 sequence with G180H, V181R, D184L
# [10] = target: T10, PUM1 PUF domain R5-HRP C1007H + Q1011P (Homo sapiens) (UniProt Q14671)
# T10 sequence: T1 sequence with G180H, V181R, D184P
# [11] = target: T11, PUM1 PUF domain R5-HRS C1007H + Q1011S (Homo sapiens) (UniProt Q14671)
# T11 sequence: T1 sequence with G180H, V181R, D184S
# [12] = target: T12, PUM1 PUF domain R5-KAD C1007K + R1008A + Q1011D (UniProt Q14671)
# T12 sequence: T1 sequence with G180K, V181A
# [13] = target: T13, PUM1 PUF domain R5-KAG C1007K + R1008A + Q1011G (UniProt Q14671)
# T13 sequence: T1 sequence with G180K, V181A, D184G
# [14] = target: T14, PUM1 PUF domain R5-KAL C1007K + R1008A + Q1011L (Homo sapiens) (UniProt Q14671)
# T14 sequence: T1 sequence with G180K, V181A, D184L
# [15] = target: T15, PUM1 PUF domain R5-KAR C1007K + R1008A + Q1011R (Homo sapiens) (UniProt Q14671)
# T15 sequence: T1 sequence with G180K, V181A, D184R
# [16] = target: T16, PUM1 PUF domain R5-KAS C1007K + R1008A + Q1011S (Homo sapiens) (UniProt Q14671)
# T16 sequence: T1 sequence with G180K, V181A, D184S
# [17] = target: T17, PUM1 PUF domain R5-KAT C1007K + R1008A + Q1011T (Homo sapiens) (UniProt Q14671)
# T17 sequence: T1 sequence with G180K, V181A, D184T
# [18] = target: T18, PUM1 PUF domain R5-KAV C1007K + R1008A + Q1011V (UniProt Q14671)
# T18 sequence: T1 sequence with G180K, V181A, D184V
# [19] = target: T19, PUM1 PUF domain R5-KCV C1007K + R1008C + Q1011V (UniProt Q14671)
# T19 sequence: T1 sequence with G180K, V181C, D184V
# [20] = target: T20, PUM1 PUF domain R5-KDK C1007K + R1008D + Q1011K (UniProt Q14671)
# T20 sequence: T1 sequence with G180K, V181D, D184K
sequence,measurement,setting,value
GGCUAGAACUAGUGGAUCCCCCGGCGCCCGGCGGCUCGAGCCCGGGUAAGUGUAAAUAGUCUGCAUGCCGCCGGGCGCCAUGCCUGCAGGUCGACUCUAGAAAACAUG,binding signal (log2 enrichment (interaction score)),[1],-3.33
same,binding signal (log2 enrichment (interaction score)),[2],< -5.47
same,binding signal (log2 enrichment (interaction score)),[3],0.36
same,binding signal (log2 enrichment (interaction score)),[4],0.6
same,binding signal (log2 enrichment (interaction score)),[5],-5.78
same,binding signal (log2 enrichment (interaction score)),[6],-0.99
same,binding signal (log2 enrichment (interaction score)),[7],< -7.33
same,binding signal (log2 enrichment (interaction score)),[8],< -6.2
same,binding signal (log2 enrichment (interaction score)),[9],-0.52
same,binding signal (log2 enrichment (interaction score)),[10],-0.95
same,binding signal (log2 enrichment (interaction score)),[11],0.92
same,binding signal (log2 enrichment (interaction score)),[12],< -7.92
same,binding signal (log2 enrichment (interaction score)),[13],-2.06
same,binding signal (log2 enrichment (interaction score)),[14],-0
same,binding signal (log2 enrichment (interaction score)),[15],-0
same,binding signal (log2 enrichment (interaction score)),[16],-0.3
same,binding signal (log2 enrichment (interaction score)),[17],0.89
same,binding signal (log2 enrichment (interaction score)),[18],< -6.62
same,binding signal (log2 enrichment (interaction score)),[19],-4.89
same,binding signal (log2 enrichment (interaction score)),[20],< -6.21

# Part of the list above, with bars between the fields:
sequence | measurement | setting | value
GGCUAGAACUAGUGGAUCCCCCGGCGCCCGGCGGCUCGAGCCCGGGUAAGUGUAAAUAGUCUGCAUGCCGCCGGGCGCCAUGCCUGCAGGUCGACUCUAGAAAACAUG | binding signal (log2 enrichment (interaction score)) | [4] | 0.6
same | binding signal (log2 enrichment (interaction score)) | [5] | -5.78
same | binding signal (log2 enrichment (interaction score)) | [6] | -0.99
same | binding signal (log2 enrichment (interaction score)) | [7] | < -7.33
same | binding signal (log2 enrichment (interaction score)) | [8] | < -6.2
